# According to the supplement of paper PMC11348887:
# Structures can show the parent of a compound that is named as a salt. The list shows a part of the results. Most values lie at the level of the controls, where differences are scatter.
# System: hPSC-derived cortical neurons (WA09)
# Test: nucleus area z-score vs screen plate; higher = larger nuclei (more mature)
# Conditions: 5 µM; treatment: days 7-14 after plating, readout day 21
row,SMILES,nucleus area z-score
1,C[C@@H](O[C@H]1OCCN(Cc2nn(P(=O)(O)O)c(=O)[nH]2)[C@H]1c1ccc(F)cc1)c1cc(C(F)(F)F)cc(C(F)(F)F)c1 [Fosaprepitant dimeglumine salt],-1.73
2,CCOC(=O)CC(=O)N1CCSC1COc1ccccc1OC (stereo not given) [Moguisteine],-0.0404
3,CCOP(=O)(OCC)C(=Cc1cc(C(C)(C)C)c(O)c(C(C)(C)C)c1)P(=O)(OCC)OCC,-0.794
4,CC(C)NCC(O)COc1ccc(CCOCC2CC2)cc1 (stereo not given) [Betaxolol HCl],0.0484
5,O=C(Nc1ccncc1)c1cc([N+](=O)[O-])ccc1Cl,0.985
6,N[C@H]1C[C@@H]1c1ccc(-c2cccc(O)c2)cc1,1.63
7,Clc1ccccc1C(c1ccccc1)(c1ccccc1)n1ccnc1 [Clotrimazole],-0.624
8,Cc1cn(-c2cc(NC(=O)c3ccc(C)c(Nc4nccc(-c5cccnc5)n4)c3)cc(C(F)(F)F)c2)cn1 [Nilotinib (AMN-107)],0.42
9,CC(C)NC[C@@H](O)COc1ccc(CC(N)=O)cc1 [(R)-(+)-Atenolol HCl],-0.655
10,OCC(O)CN1CCN(c2ccccc2)CC1 (stereo not given) [Dropropizine],0.016
11,Cc1c(Cn2c(C)nc3c(C(=O)O)cc(N4CCOCC4)cc32)cccc1C(F)(F)F,0.84
12,COc1ccc2c(c1)c(CC(=O)N1CCOCC1)c(C)n2C(=O)c1ccc(Cl)cc1,0.29
13,Cc1ccc(Cl)cc1N(CC(=O)Nc1c(F)cccc1F)S(C)(=O)=O,-0.209
14,CC(C)(C)c1cc(/C=C(\C#N)C(N)=S)cc(C(C)(C)C)c1O [Tyrphostin AG 879],0.351
15,Cc1nc2n(c(=O)c1CCN1CCC(c3noc4cc(F)ccc34)CC1)CCCC2 [Risperidone],-0.0848
16,CC/C(=C(\c1ccccc1)c1ccc(OCCN(C)C)cc1)c1ccccc1 [Tamoxifen Citrate],-2.7
17,CN(C)Cc1ccc(S(=O)(=O)n2ccc(/C=C/C(=O)NO)c2)cc1 [Resminostat],-0.866
18,Cn1sc(=O)n(Cc2ccccc2)c1=O,0.973
19,CC1CCN(CC[C@H]2CCCN2S(=O)(=O)c2cccc(O)c2)CC1,-0.0984
20,CC(C)(O)[C@H]1CC[C@@](C)([C@H]2[C@@H](O)C[C@@]3(C)[C@@H]4C[C@H](O[C@@H]5O[C@H](CO)[C@@H](O)[C@H](O)[C@H]5O)[C@H]5C(C)(C)[C@@H](O[C@@H]6OC[C@@H](O)[C@H](O)[C@H]6O)CC[C@@]56C[C@@]46CC[C@]23C)O1 [Astragaloside A],0.766

# 2 entries drawn at random from those above, as already listed:
row,SMILES,nucleus area z-score
16,CC/C(=C(\c1ccccc1)c1ccc(OCCN(C)C)cc1)c1ccccc1 [Tamoxifen Citrate],-2.7
20,CC(C)(O)[C@H]1CC[C@@](C)([C@H]2[C@@H](O)C[C@@]3(C)[C@@H]4C[C@H](O[C@@H]5O[C@H](CO)[C@@H](O)[C@H](O)[C@H]5O)[C@H]5C(C)(C)[C@@H](O[C@@H]6OC[C@@H](O)[C@H](O)[C@H]6O)CC[C@@]56C[C@@]46CC[C@]23C)O1 [Astragaloside A],0.766

# Next entries:

row,SMILES,nucleus area z-score
1,Cc1ccc(O)c([C@H](CCN(C(C)C)C(C)C)c2ccccc2)c1 [Tolterodine tartrate],-0.00377
2,CCNC(=O)C#Cc1ccc2c(C(=Nc3ccc(CN(C)C)cc3)c3ccccc3)c(O)[nH]c2c1,-13.7
3,COc1ccc(-c2oc3c(CC=C(C)C)c(O[C@@H]4O[C@H](CO)[C@@H](O)[C@H](O)[C@H]4O)cc(O)c3c(=O)c2O[C@@H]2O[C@@H](C)[C@H](O)[C@@H](O)[C@H]2O)cc1 [Icariin],0.52
4,N#Cc1ccc(-c2csc(NN=C3CCCC3)n2)cc1 [Remodelin],0.0691
5,O=[N+]([O-])c1cn2c(n1)OC[C@@H](OCc1ccc(OC(F)(F)F)cc1)C2,1.82
6,CN(C)C/C=C/C(=O)Nc1cc2c(Nc3ccc(F)c(Cl)c3)ncnc2cc1O[C@H]1CCOC1 [Afatinib (BIBW2992)],-5.28
7,CC(=O)c1cc2c(o1)C(=O)c1ccccc1C2=O [Napabucasin],0.0391
8,NC(=O)c1noc([C@H](CCCC2CCCCC2)CC(=O)NO)n1,0.46
9,Cc1nc(C#Cc2ccnc(Cl)c2)c(C)n1-c1ccc(OC(F)(F)F)cc1,0.64
10,Cc1ccc(C(=O)Nc2ccc(CN3CCN(C)CC3)c(C(F)(F)F)c2)cc1C#Cc1cnc2[nH]ncc2c1,-13.5
11,Cc1cc(N2CCOCC2)cc2[nH]c(-c3c(NC[C@@H](O)c4cccc(Cl)c4)cc[nH]c3=O)nc12,-1.28
12,COc1cc(/C=C/C(=O)CC(=O)/C=C/c2ccc(O)c(OC)c2)ccc1O [Curcumin],-0.307
13,C=CCc1cc(OC)c(O)c(C(=O)NCCO)c1 [Alibendol],0.54
14,CC(C)(C)c1[nH]cnc1/C=c1\[nH]c(=O)/c(=C/c2ccccc2)[nH]c1=O [Plinabulin (NPI-2358)],-5.71
15,Nc1ncnc2c1c(I)cn2[C@@H]1O[C@H](CO)[C@@H](O)[C@H]1O [5-Iodotubercidin],-2.73
16,CN(C)CCC=C1c2ccccc2C=Cc2ccccc21 [Cyclobenzaprine HCl],-0.731
17,COc1cccc2c1C(=O)c1c(O)c3c(c(O)c1C2=O)C[C@@](O)(C(=O)CO)C[C@@H]3O[C@H]1C[C@H](N)[C@H](O[C@@H]2CCCCO2)[C@H](C)O1 [Pirarubicin],-6.52
18,CC1=C(CC(=O)O)c2cc(F)ccc2/C1=C\c1ccc([S+](C)[O-])cc1 (stereo not given) [Sulindac],-0.0331
19,O=C(O)CCC(=O)Nc1ccc(S(=O)(=O)Nc2nccs2)cc1 [Succinylsulfathiazole],0.171
20,Nc1nc2n[nH]nc2c(=O)[nH]1 [Azaguanine-8],-1.62
